No constants are given. Whether binding was seen depends on the method and setting. Some results given as binding are weak or reduced against the parent protein; the word gives no strength.
Biological target: T1, RadD (Escherichia coli) (UniProt P33919)
T1 sequence: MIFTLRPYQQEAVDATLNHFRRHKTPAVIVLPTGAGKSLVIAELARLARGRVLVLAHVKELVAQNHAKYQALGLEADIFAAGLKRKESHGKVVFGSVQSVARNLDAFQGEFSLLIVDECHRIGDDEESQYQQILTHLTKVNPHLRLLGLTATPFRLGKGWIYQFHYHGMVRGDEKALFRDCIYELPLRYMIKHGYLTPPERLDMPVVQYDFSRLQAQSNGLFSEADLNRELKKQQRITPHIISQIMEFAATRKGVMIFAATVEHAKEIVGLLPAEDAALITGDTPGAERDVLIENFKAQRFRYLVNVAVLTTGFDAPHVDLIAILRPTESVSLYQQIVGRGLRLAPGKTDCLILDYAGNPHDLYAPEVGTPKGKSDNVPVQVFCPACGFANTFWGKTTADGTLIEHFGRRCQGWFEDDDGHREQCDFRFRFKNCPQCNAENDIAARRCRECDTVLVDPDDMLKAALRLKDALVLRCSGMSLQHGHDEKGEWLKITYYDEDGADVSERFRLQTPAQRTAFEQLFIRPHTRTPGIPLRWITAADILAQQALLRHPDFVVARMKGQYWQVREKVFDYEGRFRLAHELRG
Assay: SEC; molecular exclusion chromatography of RadD with SSB, in vitro (Figure S1); both purified

Protein sequences, listed by entry. Tags and fused reporters are not part of them.
UniProt P0AGE0: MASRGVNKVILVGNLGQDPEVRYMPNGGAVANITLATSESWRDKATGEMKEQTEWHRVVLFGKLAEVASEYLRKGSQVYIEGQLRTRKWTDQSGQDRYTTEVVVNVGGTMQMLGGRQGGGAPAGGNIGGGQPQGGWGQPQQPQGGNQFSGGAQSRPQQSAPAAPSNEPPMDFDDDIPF

Substance: single-stranded DNA-binding protein (SSB) (from UniProt P0AGE0 1-178)
- binding: binds

— PMC9821108, “Biochemical and Structural Analyses Shed Light on the Mechanisms of RadD DNA Binding and Its ATPase from Escherichia coli” (International Journal of Molecular Sciences, 2023)
